No constants are given. Whether binding was seen depends on the method and setting. In cells and extracts the contact can be indirect. Some results given as binding are weak or reduced against the parent protein; the word gives no strength. Sequences can lack the tags named with a protein.
T1: 3xFlag-GNB1L (human) (UniProt Q9BYB4)
T1 sequence: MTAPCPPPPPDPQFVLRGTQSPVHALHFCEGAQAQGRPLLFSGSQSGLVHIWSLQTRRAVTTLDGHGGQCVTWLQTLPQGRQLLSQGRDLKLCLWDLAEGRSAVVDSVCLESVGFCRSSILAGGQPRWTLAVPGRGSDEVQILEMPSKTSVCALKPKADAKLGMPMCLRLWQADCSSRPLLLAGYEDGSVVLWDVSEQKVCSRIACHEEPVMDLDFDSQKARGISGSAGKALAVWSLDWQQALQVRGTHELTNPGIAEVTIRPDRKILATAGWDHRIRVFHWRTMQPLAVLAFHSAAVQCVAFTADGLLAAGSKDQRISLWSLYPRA

By UniProt entry, the sequences of proteins in these tests, tags left out.
UniProt Q13535: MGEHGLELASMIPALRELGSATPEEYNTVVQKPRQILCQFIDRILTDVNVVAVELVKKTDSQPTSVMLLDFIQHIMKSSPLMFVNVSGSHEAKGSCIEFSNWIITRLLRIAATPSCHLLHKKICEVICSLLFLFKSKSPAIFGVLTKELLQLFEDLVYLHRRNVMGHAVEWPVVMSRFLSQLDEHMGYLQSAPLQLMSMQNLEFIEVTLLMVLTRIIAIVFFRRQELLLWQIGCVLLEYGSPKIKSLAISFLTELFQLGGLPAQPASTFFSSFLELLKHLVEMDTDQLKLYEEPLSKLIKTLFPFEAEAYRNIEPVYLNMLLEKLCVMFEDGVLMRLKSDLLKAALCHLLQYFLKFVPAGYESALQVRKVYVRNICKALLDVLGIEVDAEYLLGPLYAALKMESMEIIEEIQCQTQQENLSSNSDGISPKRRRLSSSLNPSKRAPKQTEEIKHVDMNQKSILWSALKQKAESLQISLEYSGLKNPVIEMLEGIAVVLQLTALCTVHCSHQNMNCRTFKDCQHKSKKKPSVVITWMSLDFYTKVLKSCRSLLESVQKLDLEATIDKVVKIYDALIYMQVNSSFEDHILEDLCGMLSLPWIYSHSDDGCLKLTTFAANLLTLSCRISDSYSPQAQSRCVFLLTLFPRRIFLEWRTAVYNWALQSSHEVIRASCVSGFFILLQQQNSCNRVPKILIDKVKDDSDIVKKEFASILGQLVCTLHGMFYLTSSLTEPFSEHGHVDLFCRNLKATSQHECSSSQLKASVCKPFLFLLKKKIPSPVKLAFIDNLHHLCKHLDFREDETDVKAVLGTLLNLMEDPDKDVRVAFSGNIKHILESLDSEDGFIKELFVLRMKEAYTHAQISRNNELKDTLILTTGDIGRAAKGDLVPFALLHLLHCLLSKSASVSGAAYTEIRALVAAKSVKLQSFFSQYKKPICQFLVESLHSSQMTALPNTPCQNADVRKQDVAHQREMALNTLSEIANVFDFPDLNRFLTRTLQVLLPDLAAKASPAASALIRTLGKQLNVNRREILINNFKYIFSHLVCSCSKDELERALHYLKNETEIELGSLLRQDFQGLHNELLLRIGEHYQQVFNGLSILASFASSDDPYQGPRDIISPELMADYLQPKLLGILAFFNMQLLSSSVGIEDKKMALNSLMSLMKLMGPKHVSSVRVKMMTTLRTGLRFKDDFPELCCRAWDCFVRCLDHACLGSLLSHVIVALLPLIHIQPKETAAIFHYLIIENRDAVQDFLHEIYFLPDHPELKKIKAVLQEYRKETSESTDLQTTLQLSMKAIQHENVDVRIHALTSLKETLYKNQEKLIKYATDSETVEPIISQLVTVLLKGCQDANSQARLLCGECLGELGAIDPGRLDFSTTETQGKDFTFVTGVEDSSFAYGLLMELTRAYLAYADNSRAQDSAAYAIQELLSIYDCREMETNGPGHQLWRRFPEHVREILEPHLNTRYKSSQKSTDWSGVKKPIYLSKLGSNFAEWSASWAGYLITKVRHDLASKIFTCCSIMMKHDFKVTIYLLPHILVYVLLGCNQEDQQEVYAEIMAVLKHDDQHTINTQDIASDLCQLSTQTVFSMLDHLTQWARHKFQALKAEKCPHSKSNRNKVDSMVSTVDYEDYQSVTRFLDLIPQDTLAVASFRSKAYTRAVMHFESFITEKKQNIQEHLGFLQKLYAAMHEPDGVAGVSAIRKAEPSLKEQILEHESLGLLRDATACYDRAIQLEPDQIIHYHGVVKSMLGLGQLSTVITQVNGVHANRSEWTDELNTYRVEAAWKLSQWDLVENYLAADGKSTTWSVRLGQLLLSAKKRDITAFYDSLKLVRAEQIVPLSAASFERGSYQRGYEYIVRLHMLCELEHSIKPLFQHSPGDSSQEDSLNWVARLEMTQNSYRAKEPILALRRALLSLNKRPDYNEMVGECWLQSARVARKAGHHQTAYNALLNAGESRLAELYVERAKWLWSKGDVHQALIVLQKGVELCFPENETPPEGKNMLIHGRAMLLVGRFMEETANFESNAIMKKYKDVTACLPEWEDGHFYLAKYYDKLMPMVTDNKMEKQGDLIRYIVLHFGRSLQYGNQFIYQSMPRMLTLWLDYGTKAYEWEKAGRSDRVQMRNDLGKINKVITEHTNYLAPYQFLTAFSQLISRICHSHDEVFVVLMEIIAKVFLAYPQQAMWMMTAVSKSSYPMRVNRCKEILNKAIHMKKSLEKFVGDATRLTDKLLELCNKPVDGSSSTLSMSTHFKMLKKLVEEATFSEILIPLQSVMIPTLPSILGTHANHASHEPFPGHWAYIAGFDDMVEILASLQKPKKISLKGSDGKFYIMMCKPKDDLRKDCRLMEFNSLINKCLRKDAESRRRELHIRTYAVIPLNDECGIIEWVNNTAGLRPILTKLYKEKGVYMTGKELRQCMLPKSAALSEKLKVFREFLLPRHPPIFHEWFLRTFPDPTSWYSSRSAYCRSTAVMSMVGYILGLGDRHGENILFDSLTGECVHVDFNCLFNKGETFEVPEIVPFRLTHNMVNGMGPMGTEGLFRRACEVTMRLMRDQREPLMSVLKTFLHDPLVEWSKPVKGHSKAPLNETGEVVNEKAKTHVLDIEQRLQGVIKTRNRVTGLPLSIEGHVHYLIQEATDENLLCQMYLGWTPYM
UniProt O43156: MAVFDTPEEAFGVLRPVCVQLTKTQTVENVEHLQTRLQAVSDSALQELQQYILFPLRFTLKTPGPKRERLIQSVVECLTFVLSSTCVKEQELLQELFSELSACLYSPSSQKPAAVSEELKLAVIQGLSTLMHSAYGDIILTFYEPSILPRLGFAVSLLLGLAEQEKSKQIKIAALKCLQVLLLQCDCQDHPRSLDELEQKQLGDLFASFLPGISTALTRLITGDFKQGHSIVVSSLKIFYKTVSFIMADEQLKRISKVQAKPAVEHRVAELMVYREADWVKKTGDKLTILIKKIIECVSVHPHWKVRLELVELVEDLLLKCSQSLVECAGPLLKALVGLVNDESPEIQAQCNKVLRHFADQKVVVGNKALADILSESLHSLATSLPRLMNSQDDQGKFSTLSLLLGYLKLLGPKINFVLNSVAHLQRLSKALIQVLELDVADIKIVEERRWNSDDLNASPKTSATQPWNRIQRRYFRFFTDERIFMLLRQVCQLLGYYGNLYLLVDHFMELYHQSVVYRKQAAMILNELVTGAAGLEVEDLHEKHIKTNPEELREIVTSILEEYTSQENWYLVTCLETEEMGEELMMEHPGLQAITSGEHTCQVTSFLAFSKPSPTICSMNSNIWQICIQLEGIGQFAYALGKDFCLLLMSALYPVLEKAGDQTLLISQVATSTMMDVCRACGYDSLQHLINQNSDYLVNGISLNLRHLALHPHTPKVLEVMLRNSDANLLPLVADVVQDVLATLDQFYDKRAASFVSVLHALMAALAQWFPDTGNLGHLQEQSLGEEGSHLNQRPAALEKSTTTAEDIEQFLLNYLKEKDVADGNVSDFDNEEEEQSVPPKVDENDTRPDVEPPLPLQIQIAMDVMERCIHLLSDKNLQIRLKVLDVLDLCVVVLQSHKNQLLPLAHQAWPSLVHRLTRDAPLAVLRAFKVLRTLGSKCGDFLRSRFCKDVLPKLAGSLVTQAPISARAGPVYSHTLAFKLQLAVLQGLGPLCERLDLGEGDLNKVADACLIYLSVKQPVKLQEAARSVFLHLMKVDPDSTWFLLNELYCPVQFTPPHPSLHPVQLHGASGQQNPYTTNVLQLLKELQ


Target: T1, 3xFlag-GNB1L (human)
Experiment: co-IP

binding	Molecule
binds	ATR (from UniProt Q13535 1-2644)
binds	DNA-PKcs (from UniProt P78527 1-4128)
binds	TRRAP (from UniProt Q9Y4A5 1-3859)
binds	TTI1 (from UniProt O43156 1-1089)
binds	TTI2 (protein, UniProt Q6NXR4 1-508) MELDSALEAPSQEDSNLSEELSHSAFGQAFSKILHCLARPEARRGNVKDAVLKDLGDLIEATEFDRLFEGTGARLRGMPETLGQVAKALEKYAAPSKEEEGGGDGHSEAAEKAAQVGLLFLKLLGKVETAKNSLVGPAWQTGLHHLAGPVYIFAITHSLEQPWTTPRSREVAREVLTSLLQVTECGSVAGFLHGENEDEKGRLSVILGLLKPDLYKESWKNNPAIKHVFSWTLQQVTRPWLSQHLERVLPASLVISDDYQTENKILGVHCLHHIVLNVPAADLLQYNRAQVLYHAISNHLYTPEHHLIQAVLLCLLDLFPILEKTLHWKGDGARPTTHCDEVLRLILTHMEPEHRLLLRRTYARNLPAFVNRLGILTVRHLKRLERVIIGYLEVYDGPEEEARLKILETLKLLMQHTWPRVSCRLVVLLKALLKLICDVARDPNLTPESVKSALLQEATDCLILLDRCSQGRVKGLLAKIPQSCEDRKVVNYIRKVQQVSEGAPYNGT
